{"source": "patent US20060154919A1", "about": "“Combination of a glycine transporter (GLYT1) inhibitor and an antipsychotic for the treatment of symptoms of schizophrenia as well as its preparation and use thereof” (priority 2004, published 2006)", "tested_on": "extracellular glycine in the striatum", "experiment": "Microdialysis: extracellular glycine in the rat striatum", "assay_type": "in vivo", "details": "COMPOUND NO. 1 alone, 10 mg/kg (highest dose)", "procedure": "Compounds (as a Na salt) were stored, dissolved, and administered according to detailed instructions accompanying each compound. Compounds were dissolved in a solvent consisting of 10% BCD (beta cyclodextrin) and administered subcutaneously.\nMale Sprague Dawley rats weighing 275-325 g at the start of the experiment were individually housed in a temperature-controlled colony room with a 12-h light/dark cycle. Food and water was available ad libitum throughout the experiment. The housing conditions and care of the animals were in accordance with the “Guide for the Care and Use of Laboratory Animals” (Institute of Laboratory Animal Resources on Life Sciences, National Research Council, 1996).\nGuide cannula were stored in 95% ETOH prior to surgery, whereas surgical tools underwent heat sterilization (250 °C) immediately before each surgery. […] After adequate anesthesia had been determined (using toe and tail pinch procedures), rats were placed into a stereotaxic instrument. […] Following surgery, body temperature was maintained using a heating pad and the rats were monitored until fully conscious. Rats were then individually housed and assessed daily by monitoring general activity, body weight, and feces. Rats were monitored for signs of an infection and cefazolin (100 mg/kg; intramuscular) was available as needed. […]", "note": "Some results were stated once for a whole list of compounds, not compound by compound."}
{"smiles": "CN(C/C=C(/C#Cc1ccc(-c2ccoc2)cc1)c1ccccc1)CC(=O)O", "note": "[COMPOUND NO. 1]", "values": [{"measurement": "increase in extracellular glycine", "result": "2-3 fold"}]}
